This is an account of results in PubChem BioAssay AID1487 (National Center for Advancing Translational Sciences (NCATS), 2009).

The other results are listed elsewhere or left out. Shown are side measurements of this screen, not its main read-out; they come without a call. The list favours compounds with an active or inconclusive main result. Words in brackets tell the shape of the fitted curve; partial curves, single points and poor fits give uncertain potencies.

This test can be described thus: qHTS Assay for Modulators of Lamin A Splicing. The note with it: HeLa LMNA splicing GFP/RFP minigene ratio, 48 h. Summed up: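 S3 HeLa cells stably expressing lamin A-EGFP splicing minigene plus DsRed2, 600 cells/well, 48 h compound exposure at 37C. Laser-scanning cytometry; analysed as GFP (500-530 nm)/RFP (575-640 nm) total intensity ratio; 0.5% DMSO vehicle.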
Background: In qHTS, concentration-response curves come from the screen itself.

[1] abbreviates: measured here: RFP viability control channel.
[2] abbreviates: measured here: GFP splicing reporter channel.

Broadly, the AC50 is the concentration giving half of the maximal activity seen.

In the case of `FC(F)(F)c1cccc(NC(=S)NC2CCCC2)c1`, the concentration at half-maximal activity (AC50) under setting [1] is 20 µM [rising, single point].

Turning to `C=CCc1c(C)nc(-c2ccccc2)nc1Nc1ccccc1O`, under setting [2], the AC50 was 31.6 µM [rising, partial curve].

For the molecule `FC(F)Sc1ccc(-n2cc(-c3ccc(Cl)cc3)[n+]3c2CCC3)cc1`, the AC50 under setting [1] is 35.5 µM [rising, single point].

Consider `COCCCn1nnnc1SCC(=O)Nc1ccc2c(c1)OCCO2`, for which the AC50 under setting [1] was 0.0562 µM [falling, full curve].

Take `CCOCCCNC(=O)C1c2ccccc2C(=O)N2CCc3ccccc3C12` (stereo not drawn): under setting [1], the AC50 was 35.5 µM [rising, single point].

Take `CCCCC(=O)O[C@H]1CC[C@H]2[C@@H]3CCc4cc(O)ccc4[C@H]3CC[C@]12C`: the AC50 is 1.58 µM [falling, full curve, poor fit] under setting [2] and 5.62 µM [falling, partial curve] under setting [1].

For the molecule `COC(=O)c1cc(CNC(=O)c2ccccc2Cl)ccc1OC`, the AC50 by setting is: under setting [2], 0.0562 µM [falling, full curve]; under setting [1], 0.0501 µM [falling, full curve].

Take `CCN(CC(=O)Nc1ccc(OC)c(OC)c1)S(=O)(=O)c1ccc(C)cc1`: the AC50 under setting [1] was 22.4 µM [rising, single point].

As to `CCCCOC(=O)c1ccc(OC(=O)c2sc3ncn(Cc4ccccc4Cl)c(=O)c3c2C)cc1`, the AC50 under setting [1] is 0.112 µM [falling, partial curve, poor fit].

Consider `Cc1cccc(NC(=O)CNC(=O)COc2ccc(C(=O)c3ccc(F)cc3)cc2)c1C`, for which the AC50 is 3.55 µM [rising, single point] under setting [2] and 3.98 µM [rising, single point] under setting [1].

On to `CC(/C=C1\SC(=O)N(CC(=O)Nc2ccc(O)cc2)C1=O)=C\c1ccccc1`, for which, under setting [1], the AC50 was 35.5 µM [rising, single point].

As for `COc1cccc(CNC(=O)Cc2csc3nc(-c4ccccc4)cn23)c1`, under setting [2], the AC50 is 35.5 µM [falling, partial curve, poor fit].

On to `CCOc1ccc(CNCCCSc2nnnn2C)cc1OC`, for which the AC50 under setting [1] was 0.02 µM [falling, full curve, poor fit].

On to `Cc1ccc(-c2csc3nnc(SCC(=O)Nc4nsc(-c5ccccc5)n4)n23)cc1`, for which the AC50 by setting is: under setting [2], 8.91 µM [rising, partial curve, poor fit]; under setting [1], 15.8 µM [rising, single point].

For `CCOC(=O)COc1ccc(/C=C/[N+](=O)[O-])c(OCC(=O)OCC)c1`, the AC50 reads like this: under setting [2], 35.5 µM [falling, single point]; under setting [1], 31.6 µM [falling, single point].

For the molecule `CCC(C)(C)C1CCc2nc3ccccc3c(C(=O)OC(C)C(=O)Nc3c(C)n(C)n(-c4ccccc4)c3=O)c2C1` (stereo not drawn), the AC50 under setting [1] is 0.1 µM [rising, full curve, poor fit].

As to `O=c1c2ccccc2nc(-c2cccs2)n1-c1cccc2ccccc12`, the half-maximal activity concentration (AC50) under setting [2] is 14.1 µM [rising, single point] and the AC50 under setting [1] is 20 µM [rising, single point].

Take `O=C(CNc1ccc(F)cc1)N/N=C/C1CC=CCC1` (stereo not drawn): the AC50 under setting [1] was 0.0562 µM [falling, full curve, poor fit].

Turning to `CC(=O)Nc1cc2ccccc2oc1=O`, the half-maximal activity concentration (AC50) under setting [2] was 12.6 µM [falling, single point] and the AC50 under setting [1] was 12.6 µM [falling, single point].

`COc1ccc(/C=N/NC(=O)c2nc(-c3ccccc3)n(-c3ccccc3)n2)cc1OC`: the half-maximal activity concentration (AC50) under setting [1] is 0.158 µM [rising, full curve, poor fit].

`CCN(CC)S(=O)(=O)c1ccc(O)c(NS(=O)(=O)c2ccccc2F)c1`: the AC50 under setting [1] is 14.1 µM [rising, partial curve, poor fit].

With `CN1CCC2(CC1)N=C(c1ccc(F)cc1)C(=S)N2C(=O)c1ccc(C(C)(C)C)cc1`, under setting [1], the AC50 was 35.5 µM [rising, single point].

Take `O=C(Cc1ccc(Cl)cc1)Oc1cccc2cccnc12`: the half-maximal activity concentration (AC50) under setting [1] was 3.16 µM [falling, full curve, poor fit].

For the molecule `COc1ccc(NC(=O)C2CCCN(S(=O)(=O)c3c(C)n[nH]c3C)C2)c(OC)c1` (stereo not drawn), the AC50 under setting [2] is 10 µM [rising, single point] and the AC50 under setting [1] is 10 µM [rising, partial curve].

Turning to `COc1ccc(/C=N/Nc2nc(-c3cccc(S(=O)(=O)N4CCCC4)c3)cs2)c(OC)c1`, the concentration at half-maximal activity (AC50) by setting is: under setting [2], 14.1 µM [rising, single point]; under setting [1], 35.5 µM [rising, partial curve].

Take `CC(=O)Nc1c(O)nc(SC/C=C/CSc2nc(O)c(NC(C)=O)c(=O)[nH]2)[nH]c1=O`: under setting [2], the concentration at half-maximal activity (AC50) is 0.447 µM [falling, full curve, poor fit].

As to `Cc1cc(C)nc(SCc2ccc(C(=O)N/N=C/c3ccccc3C(=O)O)cc2)n1`, under setting [2], the AC50 is 0.158 µM [falling, full curve, poor fit].

For the molecule `CCCc1sc(N/N=C/c2ccccn2)nc1-c1ccc(F)cc1`, the AC50 under setting [1] is 22.4 µM [rising, partial curve].

In the case of `COCCNC(=O)c1ccc(-n2c(-c3ccccc3)cc3c2CCC(C)C3)cc1` (stereo not drawn), the AC50 under setting [2] is 8.91 µM [falling, partial curve] and the AC50 under setting [1] is 10 µM [falling, partial curve].

As for `CCOC(=O)c1[nH]nc(-c2cc(CC)c(O)cc2O)c1-c1cscn1`, the AC50 under setting [2] is 7.94 µM [falling, partial curve, poor fit].

As to `COc1ccc(C(=O)N2CCC(C(=O)c3ccc(F)cc3)CC2)cc1`, the AC50 is 15.8 µM [rising, single point] under setting [2] and 17.8 µM [rising, partial curve] under setting [1].

In the case of `C=CCn1c(SCC(=O)NCCOC)nnc1-c1cc2c(s1)CCC(CC)C2` (stereo not drawn), under setting [1], the AC50 was 11.2 µM [rising, single point].

Take `CCOC(=O)Cn1nnnc1CN1CCN(c2ccc(OC)cc2)CC1`: the AC50 under setting [2] is 0.02 µM [rising, full curve, poor fit].

As for `O=C(O)CNC(=O)c1ccccc1Br`, the AC50 runs as follows: under setting [2], 17.8 µM [rising, partial curve]; under setting [1], 3.98 µM [rising, partial curve].

Turning to `COc1ccc(-c2ocnc2C(=O)Nc2ccccc2N2CCCCC2)cc1`, the AC50 runs as follows: under setting [2], 35.5 µM [rising, single point]; under setting [1], 31.6 µM [rising, single point].
